At least one structure is not confirmed: it was looked up by name or label, or the drawing left a doubt.
Tested on: human breast tumor cells
Assay: Differentiating agent therapy microtiter assay, inhibition of cell proliferation (Example 6)

Question: For `CC1=C(/C=C/C(C)=C/C=C/C(C)=C/C(=O)O)C(C)(C)CCC1` [retinoic acid], which “inhibition of cell proliferation (cell number relative to control)” value (0.1 to 1.0 mM, six doses, 24 hours exposure, then 72 hours, four breast tumor specimens) is on record?
Answer: three of the four breast specimens tested showed an inhibition of cell proliferation

Question: What about the “concentration range in which the responses occurred” value (tested range 0.1 to 1.0 mM) of the same compound?
Answer: mid to high
